PubChem BioAssay AID652243 | Drosophila RNAi Screening Center | 2013
Assay: 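Fly genes required for human androgen receptor driven transcription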 (primary screen). Cell system: Drosophila S2R+ cells. Reagent: long dsRNA against Drosophila genes. Duration: 72 h (48 h, then 24 h hormone). Treatment: synthetic androgen R1881 at 10 nM for 24 h. Detection: 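Per-well raw luminescence of the androgen-driven firefly reporter and of the Renilla control, two replicates each, without normalisation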. Reading the numbers: firefly reporter light: higher = more light from androgen-responsive reporter; Renilla control light: higher = more constitutive control signal (cell number, transfection). Active means: 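Across duplicate plates, a knock-down whose log firefly/Renilla ratio shifted a set fold down or up from the GFP/LacZ control mean was a hit; the downward cut appears as both 1.5 and 3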. Calls: active = hit: reporter lowered or raised; inactive = no hit.
In all, the deposit lists about 24,000 reagents; this is an unselected part of those with a known target gene and a result. Of all reagents, 246 (1%) are marked active. 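Plates not normalised; calls are printed but the firefly/Renilla ratio behind them is not deposited; fold cut for lowering reported inconsistently.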 The raw values are shown without normalisation. A plus sign joins genes that one reagent is predicted to hit. Not given: the amount of reagent.

| firefly reporter light, replicate 1 | firefly reporter light, replicate 2 | Renilla control light, replicate 1 | Renilla control light, replicate 2 | Call | predicted target | DRSC id |
| --- | --- | --- | --- | --- | --- | --- |
| 2.21e5 | 1.95e5 | 2.01e6 | 1.92e6 | inactive | CG13309 | DRSC09980 |
| 9.09e5 | 5.69e5 | 1.37e6 | 8.93e5 | inactive | wdp | DRSC04367 |
| 5.76e5 | 4.66e5 | 1.49e6 | 1.33e6 | inactive | wdp | DRSC28581 |
| 82565 | 1.52e5 | 8.73e5 | 1.54e6 | inactive | Obp56a | DRSC06085 |
| 7.86e5 | 7.07e5 | 1.01e6 | 8.15e5 | inactive | Obp56a | DRSC30070 |
| 1.29e6 | 1.12e6 | 1.58e6 | 1.63e6 | inactive | RpLP0-like | DRSC06424 |
| 8.21e5 | 9.31e5 | 1.68e6 | 1.81e6 | inactive | RpLP0-like | DRSC28206 |
| 6.45e5 | 7.64e5 | 1.99e6 | 1.55e6 | inactive | ND6 (retired record) | DRSC21271 |
| 69833 | 83667 | 1.16e6 | 1.12e6 | inactive | CanB | DRSC18449 |
| 5.29e5 | 4.99e5 | 1.47e6 | 1.54e6 | inactive | CanB | DRSC29220 |
| 8.45e5 | 7.78e5 | 5.75e5 | 3.61e5 | inactive | CR18166 | DRSC17260 |
| 3.97e5 | 3.08e5 | 2.96e6 | 2.50e6 | inactive | CR18166 | DRSC18147 |
| 2.27e5 | 2.51e5 | 1.86e5 | 6.32e5 | inactive | CR18166 | DRSC27717 |
| 1.27e5 | 1.40e5 | 1.82e6 | 2.45e6 | inactive | rb | DRSC18826 |
| 1.10e6 | 5.24e5 | 3.49e6 | 1.65e6 | inactive | rb | DRSC27940 |
| 3.72e5 | 2.92e5 | 3.40e6 | 2.83e6 | inactive | CG13457 | DRSC10004 |
| 8.52e5 | 8.88e5 | 1.66e6 | 1.33e6 | inactive | CG13457 | DRSC29775 |
| 1.64e5 | 2.04e5 | 2.59e6 | 2.57e6 | inactive | loco | DRSC15202 |
| 38508 | 45753 | 2.99e5 | 2.74e5 | inactive | loco | DRSC16989 |
| 1.73e5 | 2.04e5 | 2.70e5 | 5.96e5 | inactive | loco | DRSC27695 |
| 5.23e5 | 4.38e5 | 2.09e6 | 1.53e6 | inactive | CG13229 | DRSC06349 |
| 1.79e5 | 1.70e5 | 1.95e6 | 1.86e6 | inactive | prg | DRSC03324 |
| 41201 | 24383 | 2.73e5 | 2.80e5 | inactive | CG2129 | DRSC18209 |
| 7.04e5 | 5.86e5 | 3.25e5 | 5.14e5 | inactive | CG2129 | DRSC24934 |
| 1.48e5 | 2.18e5 | 1.47e6 | 1.39e6 | inactive | ND-B14.7 | DRSC04544 |
| 1.24e6 | 8.31e5 | 2.03e6 | 1.71e6 | inactive | CG34184 | DRSC38644 |
| 3.52e5 | 3.05e5 | 1.90e6 | 2.08e6 | inactive | CG13217 | DRSC06339 |
| 1.42e5 | 1.99e5 | 2.73e6 | 3.10e6 | inactive | Exd2 | DRSC16105 |
| 3.33e5 | 2.55e5 | 1.00e6 | 8.39e5 | inactive | Exd2 | DRSC25938 |
| 43355 | 50351 | 6.29e5 | 4.86e5 | inactive | CtsL3 | DRSC12171 |
| 3.37e5 | 2.17e5 | 5.28e5 | 4.47e5 | inactive | CtsL3 | DRSC27036 |
| 1.07e5 | 1.41e5 | 1.84e6 | 2.36e6 | inactive | CG7166 | DRSC11809 |
| 4.27e5 | 3.74e5 | 5.24e5 | 5.28e5 | inactive | PIG-O | DRSC06123 |
| 77078 | 54562 | 6.34e5 | 4.84e5 | inactive | Ice2 | DRSC14268 |
| 3.33e5 | 3.24e5 | 3.20e6 | 3.45e6 | inactive | Archease | DRSC16025 |
| 3.26e5 | 2.63e5 | 2.21e6 | 2.46e6 | inactive | Btnd | DRSC18316 |
| 7.41e5 | 7.01e5 | 9.24e5 | 8.34e5 | inactive | Btnd | DRSC24718 |
| 7.46e5 | 6.77e5 | 1.46e6 | 1.51e6 | inactive | Btnd | DRSC38991 |
| 5.13e5 | 4.57e5 | 2.96e6 | 2.95e6 | inactive | CG12991 | DRSC19511 |
| 5.72e5 | 4.33e5 | 1.50e6 | 1.14e6 | inactive | CG12991 | DRSC28165 |
| 3.93e5 | 3.64e5 | 2.61e6 | 1.94e6 | inactive | CG12692 | DRSC17881 |
| 3.47e5 | 2.39e5 | 2.40e6 | 2.17e6 | inactive | CG33964 + CG13175 | DRSC06300 |
| 2.21e5 | 1.57e5 | 1.66e6 | 1.57e6 | inactive | CG33964 + CG13175 | DRSC06301 |
| 2.10e5 | 1.78e5 | 1.14e6 | 1.05e6 | inactive | CG33964 + CG13175 | DRSC07184 |
| 2.42e5 | 1.50e5 | 1.94e6 | 1.12e6 | inactive | GluRS-m | DRSC10431 |
| 4.28e5 | 2.62e5 | 6.09e5 | 5.62e5 | inactive | GluRS-m | DRSC26953 |
| 1.01e6 | 8.82e5 | 2.08e6 | 1.66e6 | inactive | CG5335 | DRSC06931 |
| 3.78e5 | 3.67e5 | 4.64e5 | 4.24e5 | inactive | CG5335 | DRSC26565 |
| 1.74e5 | 3.37e5 | 5.20e5 | 5.79e5 | inactive | Eaat2 | DRSC00032 |
| 9.15e5 | 7.07e5 | 3.22e6 | 2.98e6 | inactive | Eaat2 | DRSC00749 |
| 2.37e5 | 3.79e5 | 5.14e5 | 6.33e5 | inactive | Eaat2 | DRSC26070 |
| 73711 | 81227 | 5.24e5 | 5.27e5 | inactive | Swt1 | DRSC20028 |
| 6.33e5 | 6.88e5 | 1.75e6 | 1.90e6 | inactive | Mp | DRSC10193 |
| 1.76e5 | 2.00e5 | 2.04e6 | 2.34e6 | inactive | Mp | DRSC11029 |
| 1.94e5 | 1.20e5 | 2.19e6 | 1.46e6 | inactive | Mp | DRSC11030 |
| 1.14e5 | 1.32e5 | 1.45e6 | 2.04e6 | inactive | CG12672 | DRSC19482 |
| 8.83e5 | 8.95e5 | 1.06e6 | 1.30e6 | inactive | CG12672 | DRSC24282 |
| 1.01e6 | 1.25e6 | 2.04e6 | 2.00e6 | inactive | CG31637 | DRSC02270 |
| 85630 | 98850 | 9.96e5 | 8.85e5 | inactive | CG31637 | DRSC03263 |
| 9.18e5 | 9.97e5 | 1.09e6 | 8.91e5 | inactive | CG31637 | DRSC25193 |
| 1.89e5 | 2.31e5 | 1.46e6 | 1.29e6 | inactive | CG1428 | DRSC03708 |
| 2.72e5 | 2.20e5 | 3.39e6 | 3.12e6 | inactive | lbe | DRSC16985 |
| 3.61e5 | 2.57e5 | 5.13e5 | 4.12e5 | inactive | lbe | DRSC23597 |
| 2.68e5 | 1.69e5 | 1.52e6 | 2.20e6 | inactive | form3 | DRSC10195 |
| 9.56e5 | 4.33e5 | 2.16e6 | 1.82e6 | inactive | form3 | DRSC10297 |
| 1.71e5 | 1.43e5 | 1.99e6 | 2.11e6 | inactive | form3 | DRSC11024 |
| 52630 | 16992 | 3.13e5 | 2.48e5 | inactive | CG7724 | DRSC10905 |
| 9.24e5 | 8.13e5 | 1.38e6 | 1.87e6 | inactive | Pex2 | DRSC10770 |
| 75571 | 1.03e5 | 1.63e6 | 1.57e6 | inactive | Ibf2 | DRSC16551 |
| 1.06e5 | 1.56e5 | 2.57e6 | 2.48e6 | inactive | CG11755 | DRSC14374 |
| 3.00e5 | 2.89e5 | 8.30e5 | 7.42e5 | inactive | CG11755 | DRSC26076 |
| 44197 | 27422 | 3.56e5 | 3.68e5 | inactive | Fer3 | DRSC16133 |
| 2.20e5 | 2.43e5 | 7.01e5 | 7.81e5 | inactive | Fer3 | DRSC26669 |
| 9.80e5 | 9.58e5 | 1.90e6 | 2.47e6 | inactive | Fer3 | DRSC39065 |

Part of the list above, reformatted:
firefly reporter light, replicate 1 | firefly reporter light, replicate 2 | Renilla control light, replicate 1 | Renilla control light, replicate 2 | Call | predicted target | DRSC id
9.18e5 | 9.97e5 | 1.09e6 | 8.91e5 | inactive | CG31637 | DRSC25193
1.89e5 | 2.31e5 | 1.46e6 | 1.29e6 | inactive | CG1428 | DRSC03708
2.72e5 | 2.20e5 | 3.39e6 | 3.12e6 | inactive | lbe | DRSC16985
3.61e5 | 2.57e5 | 5.13e5 | 4.12e5 | inactive | lbe | DRSC23597
2.68e5 | 1.69e5 | 1.52e6 | 2.20e6 | inactive | form3 | DRSC10195
9.56e5 | 4.33e5 | 2.16e6 | 1.82e6 | inactive | form3 | DRSC10297
1.71e5 | 1.43e5 | 1.99e6 | 2.11e6 | inactive | form3 | DRSC11024
52630 | 16992 | 3.13e5 | 2.48e5 | inactive | CG7724 | DRSC10905
9.24e5 | 8.13e5 | 1.38e6 | 1.87e6 | inactive | Pex2 | DRSC10770
75571 | 1.03e5 | 1.63e6 | 1.57e6 | inactive | Ibf2 | DRSC16551
